PubChem BioAssay AID1259308 | NCATS – 2017

- Purpose: 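Knock-downs that increase output of a recombinant reporter protein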 (primary screen)
- Cell system: human HEK293 embryonic kidney cells stably expressing firefly luciferase (HEK-CMV-Luc2-Hygro)
- Knock-down reagent: single siRNA against human genes, 0.8 pmol siRNA per well
- Time to read-out: 72 h
- Detection: 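Luciferase light (ONE-Glo) measured on one replicate plate set and viability (CellTiter-Glo) on the other, scaled to a negative control siRNA, with robust z-scores and luciferase per cell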
- Reading the numbers: total luciferase, z-score and total luciferase, % of control: higher = more reporter protein produced; luciferase per cell, z-score: higher = more reporter output per viable cell; viable cells, % of control: higher = more viable cells
- Active means: 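Active when the median/MAD z-score for overall luciferase is greater than 3; a gene was taken forward for validation with new siRNAs if at least two of its three siRNAs passed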
- Meaning of the calls: active = raised luciferase; inactive = no rise
The whole screen tested about 59,000 reagents; below is an unselected part. About 1,510 of all reagents (2.6%) were called active. 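Calls use total luciferase alone and ignore viability, so some active siRNAs may act by altering cell number.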 A number with no mark means an inactive call. The numbers tell different reagents against one gene apart.

gene symbol | reagent no. | total luciferase, z-score | total luciferase, % of control | luciferase per cell, z-score | viable cells, % of control
GPHA2 | 1 | 3.49 (active) | 151 | 2.93 | 78.2
GPHA2 | 2 | 0.189 | 85.7 | 1.34 | 67.3
GPHA2 | 3 | -2.23 | 37.5 | -1.25 | 58.3
C9orf50 | 1 | -0.946 | 63.1 | -0.786 | 86.7
C9orf50 | 2 | -0.0354 | 81.2 | -0.0169 | 91.1
C9orf50 | 3 | 0.581 | 93.4 | 2.67 | 51.7
ZNF500 | 1 | 0.893 | 99.6 | 0.492 | 97.8
ZNF500 | 2 | 1.49 | 112 | 0.893 | 98.5
ZNF500 | 3 | 0.35 | 88.8 | 0.874 | 78.9
ZNF473 | 1 | 0.0308 | 82.5 | -0.385 | 102
ZNF473 | 2 | -0.145 | 79 | -0.279 | 95
ZNF473 | 3 | 1.1 | 104 | 1.12 | 86.5
WBP11P3 | 1 | 1.26 | 107 | 2.84 | 56.6
WBP11P3 | 2 | 2.62 | 134 | 2.96 | 68.6
WBP11P3 | 3 | 1.43 | 110 | 3.36 | 50.9
GRHL2 | 1 | -1.46 | 52.8 | -0.702 | 71
GRHL2 | 2 | 0.215 | 86.2 | 0.232 | 90.6
GRHL2 | 3 | 1.42 | 110 | 0.869 | 97.9
CERCAM | 1 | 3.19 (active) | 145 | 2.45 | 85.1
CERCAM | 2 | 0.136 | 84.6 | -0.0278 | 95.2
CERCAM | 3 | -0.357 | 74.8 | -0.905 | 106
PHLDB2 | 1 | -0.394 | 74.1 | -0.654 | 98.3
PHLDB2 | 2 | 0.112 | 84.1 | -0.0201 | 94.5
PHLDB2 | 3 | 0.773 | 97.3 | 0.454 | 96.4

As entered above.
Result of ZNF473 #1 under “luciferase per cell, z-score”: -0.385
ZNF473 #2, total luciferase, % of control → 79
